## Library screening results

Mtb growth Cornell: 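Whole-cell assay for inhibitors of Mycobacterium tuberculosis growth, labelled Cornell in the record; the read-out is not stated. The concentration is filed as 10 mM, unlikely as a test dose, so the dose is not known. The record gives no direction; compounds strong in two other growth screens of this library score well above the rest, so higher reads as stronger inhibition. Size under these conditions: about 53,000 compounds, about 900 of them at 50% or above in at least one test.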
Mtb heat-shock: 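Assay on Mycobacterium tuberculosis, filed only as a heat shock assay from Cornell; the read-out is not stated. The concentration is filed as 10 mM, unlikely as a test dose, so the dose is not known. Direction is inferred from retests: higher values go with stronger inhibition. Of about 69,000 compounds tested this way, about 930 (1.4%) reached 50% or more in at least one test.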

Results are given as percent effect. How 0% and 100% were set is not recorded. Most values in the screen are low, and negative values occur. The compounds are a random part of those screened. A dash means the value is not listed here; it may have been measured.

SMILES | Mtb growth Cornell | Mtb heat-shock
Cc1nc(CN(C)C(=O)Nc2cccc(COC(C)C)c2C)no1 | - | 10.93
COc1ccccc1OC1CCN(C(=O)c2cnc(C)cc2C)CC1 | - | -13.4
Cc1ccc(-n2ncc(C(=O)NC3CCCCC3)c2N)cc1 | 8.449 | 13.97
CC(C)(O)C1CCN(C(=O)Nc2nc(-c3ccccc3)ns2)CC1 | 105.1 | 32.24
O=C(O)C(F)(F)F.O=C(O)C(F)(F)F.O=C(O)C(F)(F)F.[H][C@@]12OCCN(Cc3ccncc3)[C@@]1([H])CC[C@H]2OCCN1CCCC1 | 28.88 | 11.28
Cc1ccc(CN2C[C@@H](C(=O)O)[C@H](c3cccnc3)C2)s1 | 25.33 | -10.44
CN(C)C(=O)c1cccc(NC(=O)CN2CCCCC2C2OCCO2)c1 (stereo not shown) | 5.091 | -4.797
Cc1cnn(CC2CCCN2C(=O)c2cc(O)nc3ccccc23)c1 (stereo not shown) | - | 0.1604
[H][C@]12C[C@@H](Cn3cccn3)N(C)[C@@]1([H])CCN(C(=O)Cc1cccs1)C2 | -2.082 | -13.64
CSCCC(=O)N1CCCC1c1nnc2n1CCCCC2 (stereo not shown) | -67.73 | 0.7517
NC(=O)N1CCCC1COC(=O)c1cc(F)ccc1F (stereo not shown) | -3.522 | -21.67
c1cnc(N2CCC(c3cc4cccnc4[nH]3)CC2)nc1 | -3.26 | -21.8
CN(Cc1ccc(F)cc1)Cc1cc2c(cc1Br)OCCO2 | -2.533 | -6.701
O=C(O)C(F)(F)F.OCCOCc1nnn2c1CN(c1ncccn1)CCC2 | -3.661 | -4.881
CC(=O)NC1CCCN(C(=O)CNc2cccc(C)c2Cl)C1 (stereo not shown) | - | -8.244
CC(C(=O)N1CCN(c2ncccn2)CC1)n1cncn1 (stereo not shown) | -53.47 | -2.908
Cc1cccc(N2CCC(N3CCC4(CN(C)C(=O)O4)C3)CC2)c1C (stereo not shown) | - | 14.95
Cc1cc(N2CCc3c(ncn3C)C2)n2nc(C(F)(F)F)nc2n1 | 1.664 | -22.92
CN([C@@H]1CC[C@@H](N2CCCC2)[C@@H]1O)S(=O)(=O)c1ccccc1 | 24.86 | -12.01
Cc1csc(C2CCCN(C(=O)c3c[nH]c(C)n3)C2)n1 (stereo not shown) | - | 10.18
CCS(=O)(=O)N1CCC2(CCN(C(=O)c3cccs3)CC2)CC1 | -7.984 | 49.64
C[C@@H]1CN(C2(C(=O)N3CC[C@H](O)C3)Cc3ccccc3C2)C[C@H](C)O1 | 15.89 | -5.926
CNC(=O)c1cc(S(=O)(=O)C(C)C)cs1 | 12.26 | -6.874
[H][C@]12CN(Cc3cccnc3OC)CC[C@@]1(O)CCN(C(=O)C1CCC1)C2 | -7.095 | 5.825
COc1ccc(C2(C(=O)N3C[C@@H](C(=O)O)[C@H](C(C)C)C3)CC2)cc1 | 4.109 | -6.154
CC(NCc1cccc(S(=O)(=O)N(C)C)c1)c1cccnc1 (stereo not shown) | - | 1.843
Cc1noc(C)c1-c1cncc(C2CCCN2Cc2nccs2)n1 (stereo not shown) | -11.62 | -4.24
Oc1ccc(N(CCc2ccccc2)CCn2cncn2)cc1 | 107 | 24.6
O=C(NC1(c2nccs2)CCCC1)c1[nH]nc(C2CC2)c1Cl | 11.05 | -2.169
Cc1cc(C(=O)N2CC[C@@H](N(C)C)[C@@H]2Cc2ccccc2)no1.O=C(O)C(F)(F)F | 41.49 | -0.9769
COCC(=O)N1CCN(C)c2ncccc2C1 | 15.78 | -22.78
c1cn(-c2ccc(CN3CCCC3)cc2)c(-c2cc3n(n2)CCNC3)n1 | -6.023 | -28.21
[H][C@@]12CN(Cc3ccco3)C[C@]1([H])OCCN2Cc1cnn(C)c1 | 10.29 | -18.64
[H][C@@]12CCN(Cc3cc(C)on3)C[C@@]1([H])O[C@@H](c1nnc(C)[nH]1)C2 | 3.185 | 11.85
CCN(CC)S(=O)(=O)c1cc2c3c(c1)c(C)cc(=O)n3CCC2 | -1.602 | 14.3
CCCN1CCCC1c1ccc(C(=O)N2CCOCC2)s1 (stereo not shown) | 20.2 | 8.072
CN(C)Cc1cnn(-c2ccccc2C(=O)NCCC2CCCN2C)c1 (stereo not shown) | 17.58 | -11.19
O=C(O)C(F)(F)F.O=C(O)C(F)(F)F.[H][C@@]12CC(=O)N(Cc3cccc(C)n3)[C@@]1([H])CCN2Cc1ccc(CC)o1 | 19.66 | -1.259
COCC(=O)N1CCC2(C1)c1ccccc1S(=O)(=O)N2CCC(C)C (stereo not shown) | 9.33 | -12.87
CCC(=O)Nc1ccc(C(C)NC(=O)COCCOC)cc1 (stereo not shown) | -1.503 | -3.383
CC(=O)N[C@@H]1CN(Cc2ccco2)C[C@H]1c1ccc(C)o1 | -28.6 | -8.883
O=c1[nH]nc2c(N3CCCCCC3)nccn12 | - | -5.041
O=C(O)C(F)(F)F.O=C(O)C(F)(F)F.O=C(O)c1c(-c2cccnc2)ncc2c1CCN(Cc1cccnc1)C2 | -13.36 | -14.58
Cc1ccc(NCc2cccc3cn[nH]c23)cc1OC1CCOC1 (stereo not shown) | 50.19 | 38.26
Cc1cc(NC(=O)Cn2cnc(-c3cccs3)cc2=O)sn1 | -17.11 | -4.05
CC(C)c1nn(C)c(N(C)C)c1CNCc1ccccc1CO.Cl | - | 37.79
COc1ccnc(N2CCN(C(=O)CN3CCCC3=O)CC2)n1 | 17.93 | 13.91
CNS(=O)(=O)CC(=O)N1CCC(c2cc3ccccc3[nH]2)CC1 | - | 9.708
CCCn1nccc1-c1cc(C2CCN(C(C)=O)CC2)ccn1 | 15.02 | -16.76
Cn1cc(-c2nnn3c2COC(CNCc2ccncc2)C3)cn1 (stereo not shown) | - | -18.58
O=S(=O)(Nc1cnn(C2CCOCC2)c1)c1c(F)cccc1F | 9.346 | 13.35
COCCOCCC(=O)N1CCC(c2ccccc2C)C1 (stereo not shown) | 27.28 | 15.07
Cc1cc(CC(C)NC(=O)c2cccc(CC3CCNCC3)c2)[nH]n1 (stereo not shown) | - | 6.91
Cc1cc(N2Cc3cnn(CCO)c3C2)nc(-c2ccccc2O)n1 | 12.3 | -4.91
COc1cc(OC)c(CNC(=O)NCC(=O)N(C)C)c(OC)c1 | 21.69 | 6.74
Cl.[H][C@@]12CCCCN[C@]1([H])[C@@H](c1ccccc1)CCN2S(=O)(=O)N1CCCC1 | -130.5 | -11.27
CNc1ncc(-c2csc(NC(=O)C[C@H]3COCCN3)n2)cn1.Cl | -17.99 | -16.81
CSCC(=O)N[C@H]1CN(Cc2c(C)noc2C)C[C@@H]1C(C)C | -13.36 | -10.78
COCCCC1CCCN(C(=O)CCc2cc(O)no2)C1 (stereo not shown) | -57.49 | -4.205
[H][C@]12CC[C@]([H])(CN(Cc3c(C)noc3C)C1)N(Cc1csc(C(C)=O)c1)C2 | 37.94 | 13.88
Cc1cccc(CC(=O)N2CCOCC2c2c(C)n[nH]c2C)c1 (stereo not shown) | -9.453 | -11.17
CCN(C(=O)C1CC1)C(c1cccnc1)c1ccc2c(c1)CCO2 (stereo not shown) | -4.452 | -30.02

7 of the entries, repeated:

* CC(C(=O)N1CCN(c2ncccn2)CC1)n1cncn1 (stereo not shown) : Mtb growth Cornell: -53.47%; Mtb heat-shock: -2.908%
* O=C(O)C(F)(F)F.OCCOCc1nnn2c1CN(c1ncccn1)CCC2 : Mtb growth Cornell: -3.661%; Mtb heat-shock: -4.881%
* c1cn(-c2ccc(CN3CCCC3)cc2)c(-c2cc3n(n2)CCNC3)n1 : Mtb growth Cornell: -6.023%; Mtb heat-shock: -28.21%
* O=C(O)C(F)(F)F.O=C(O)C(F)(F)F.[H][C@@]12CC(=O)N(Cc3cccc(C)n3)[C@@]1([H])CCN2Cc1ccc(CC)o1 : Mtb growth Cornell: 19.66%; Mtb heat-shock: -1.259%
* Cc1cccc(N2CCC(N3CCC4(CN(C)C(=O)O4)C3)CC2)c1C (stereo not shown) : Mtb heat-shock: 14.95%
* COCCCC1CCCN(C(=O)CCc2cc(O)no2)C1 (stereo not shown) : Mtb growth Cornell: -57.49%; Mtb heat-shock: -4.205%
* CSCC(=O)N[C@H]1CN(Cc2c(C)noc2C)C[C@@H]1C(C)C : Mtb growth Cornell: -13.36%; Mtb heat-shock: -10.78%

Measurements from “University of Dundee, Small-Polar-MMV Screening Library” (2021), ChEMBL document CHEMBL3988442.